Results of single-concentration screens

Chains of the proteins cited; added tags and fusions are not shown.
UniProt P9WNZ1, whole entry: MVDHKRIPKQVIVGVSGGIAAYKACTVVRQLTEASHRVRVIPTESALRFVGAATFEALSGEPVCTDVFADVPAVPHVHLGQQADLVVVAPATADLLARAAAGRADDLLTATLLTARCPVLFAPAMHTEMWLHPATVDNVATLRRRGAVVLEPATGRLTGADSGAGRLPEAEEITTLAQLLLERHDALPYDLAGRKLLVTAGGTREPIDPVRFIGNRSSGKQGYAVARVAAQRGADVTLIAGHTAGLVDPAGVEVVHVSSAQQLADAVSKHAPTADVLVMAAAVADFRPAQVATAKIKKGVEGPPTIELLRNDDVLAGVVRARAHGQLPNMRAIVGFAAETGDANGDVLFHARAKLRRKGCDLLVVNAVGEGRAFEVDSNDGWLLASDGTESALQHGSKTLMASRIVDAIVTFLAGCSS
UniProt P9WFT3, whole entry: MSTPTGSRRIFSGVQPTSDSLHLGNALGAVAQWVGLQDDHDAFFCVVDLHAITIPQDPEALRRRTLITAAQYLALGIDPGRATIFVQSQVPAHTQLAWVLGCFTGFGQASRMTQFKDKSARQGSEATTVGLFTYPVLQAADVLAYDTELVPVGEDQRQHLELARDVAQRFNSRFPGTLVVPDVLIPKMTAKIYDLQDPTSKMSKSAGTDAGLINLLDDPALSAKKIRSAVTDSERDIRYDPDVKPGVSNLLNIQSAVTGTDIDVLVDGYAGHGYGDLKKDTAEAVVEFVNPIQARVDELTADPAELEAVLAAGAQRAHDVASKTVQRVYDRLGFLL
UniProt I6X8D2, whole entry: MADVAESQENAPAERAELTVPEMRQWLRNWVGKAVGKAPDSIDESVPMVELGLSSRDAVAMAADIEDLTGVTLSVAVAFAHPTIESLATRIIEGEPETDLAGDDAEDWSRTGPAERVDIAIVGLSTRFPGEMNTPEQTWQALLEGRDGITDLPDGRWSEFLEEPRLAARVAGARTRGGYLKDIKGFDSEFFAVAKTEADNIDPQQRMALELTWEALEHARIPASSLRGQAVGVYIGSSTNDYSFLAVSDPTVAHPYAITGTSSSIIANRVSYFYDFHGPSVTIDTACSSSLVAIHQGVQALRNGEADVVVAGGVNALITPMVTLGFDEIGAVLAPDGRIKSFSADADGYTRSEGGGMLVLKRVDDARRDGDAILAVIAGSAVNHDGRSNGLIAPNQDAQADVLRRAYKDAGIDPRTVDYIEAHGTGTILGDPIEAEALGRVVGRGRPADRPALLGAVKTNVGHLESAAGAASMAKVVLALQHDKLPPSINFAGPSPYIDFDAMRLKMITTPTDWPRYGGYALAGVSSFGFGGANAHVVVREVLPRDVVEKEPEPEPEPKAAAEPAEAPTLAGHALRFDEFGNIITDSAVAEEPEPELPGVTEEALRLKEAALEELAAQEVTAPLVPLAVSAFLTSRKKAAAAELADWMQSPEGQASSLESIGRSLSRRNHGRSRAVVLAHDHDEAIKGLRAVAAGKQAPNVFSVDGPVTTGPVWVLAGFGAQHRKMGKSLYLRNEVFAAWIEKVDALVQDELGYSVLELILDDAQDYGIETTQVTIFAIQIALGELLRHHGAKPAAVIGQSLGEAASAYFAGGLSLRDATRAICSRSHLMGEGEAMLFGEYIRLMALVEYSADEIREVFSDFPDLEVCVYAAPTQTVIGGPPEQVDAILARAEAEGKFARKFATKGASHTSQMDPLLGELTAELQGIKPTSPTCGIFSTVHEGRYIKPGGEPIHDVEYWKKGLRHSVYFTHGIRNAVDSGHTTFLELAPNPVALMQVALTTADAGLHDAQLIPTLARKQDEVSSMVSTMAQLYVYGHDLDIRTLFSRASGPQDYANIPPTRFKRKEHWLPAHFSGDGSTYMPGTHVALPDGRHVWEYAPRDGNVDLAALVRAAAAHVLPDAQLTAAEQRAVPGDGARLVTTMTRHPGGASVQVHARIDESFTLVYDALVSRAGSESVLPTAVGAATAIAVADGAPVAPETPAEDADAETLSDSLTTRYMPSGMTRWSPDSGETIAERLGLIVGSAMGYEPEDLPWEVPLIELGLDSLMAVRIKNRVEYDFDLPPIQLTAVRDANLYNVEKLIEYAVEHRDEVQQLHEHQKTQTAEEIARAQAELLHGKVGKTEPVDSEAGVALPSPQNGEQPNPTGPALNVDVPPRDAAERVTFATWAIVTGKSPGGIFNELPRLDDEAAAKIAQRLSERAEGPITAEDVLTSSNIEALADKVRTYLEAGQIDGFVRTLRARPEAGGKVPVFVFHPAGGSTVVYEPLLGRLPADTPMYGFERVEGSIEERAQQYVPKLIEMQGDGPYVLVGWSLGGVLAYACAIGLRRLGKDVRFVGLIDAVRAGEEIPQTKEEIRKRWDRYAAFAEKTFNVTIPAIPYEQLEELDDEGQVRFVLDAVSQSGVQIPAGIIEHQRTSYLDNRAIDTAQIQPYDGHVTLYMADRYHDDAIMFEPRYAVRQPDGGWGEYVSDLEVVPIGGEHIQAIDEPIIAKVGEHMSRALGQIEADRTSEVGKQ

The filed quantity is “Percent Effect” (%). The controls that fix the scale are not given in the record; negative values are as filed. This is an unselected part of the compounds tested.

CoaBC: 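Enzyme assay of CoaBC with a phosphate dye (Biomol Green) read at 650 nm. Target: Coenzyme A biosynthesis protein CoaBC, Mycobacterium tuberculosis (UniProt P9WNZ1). Concentration: 30 µM. Direction is inferred from only a few compounds that gave an IC50; most scored high, so higher reads as stronger inhibition. Most strong results did not repeat in a second test. Size under these conditions: about 67,000 compounds, about 40 of them at 50% or above in at least one test.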
MtTrpRS: 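Enzyme assay of tryptophanyl-tRNA synthetase; the read-out is not stated. Target: Tryptophan-tRNA ligase, Mycobacterium tuberculosis (UniProt P9WFT3). Compounds at 10 µM. Direction is not recorded; retested compounds ran higher, which suggests that high means inhibition. Of about 65,000 compounds tested this way, about 64 (0.098%) reached 50% or more in at least one test.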
Pks13 thioesterase: 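Polyketide synthase Pks13, Mycobacterium tuberculosis (UniProt I6X8D2). Enzyme assay of the thioesterase domain of polyketide synthase 13; the read-out is not stated. Tested at 30 µM. The record gives no direction; the compounds picked for IC50 retests had high values, so higher reads as stronger inhibition. Size under these conditions: about 67,000 compounds, about 300 of them at 50% or above in at least one test.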

* CN(Cc1cnn(C)c1)C(=O)C1COc2ccccc2C1 (stereo not drawn) : CoaBC: -2.263%; MtTrpRS: -5.936%; Pks13 thioesterase: 2.35%
* COC(=O)CN(C(=O)c1cc(C)c(F)cc1F)c1cccc(C)n1 : CoaBC: -2.89%; MtTrpRS: -5.815%; Pks13 thioesterase: -2.51%
* c1cnc(N2CCO[C@@H]3CN(Cc4ccoc4)C[C@@H]3C2)nc1 : CoaBC: 0.8485%; Pks13 thioesterase: -4.662%
* COCC(c1cccc(C(F)(F)F)c1)N(C)C(=O)c1cc(C)n[nH]1 (stereo not drawn) : CoaBC: 0.5319%; MtTrpRS: -2.987%; Pks13 thioesterase: -6.591%
* Cc1nc(CN2CCC(O)(c3ccccc3F)CC2)c2ccccn12 : CoaBC: -1.142%; MtTrpRS: -3.646%; Pks13 thioesterase: 14.54%
* COc1ncccc1NC(=O)NC(CCCO)c1ccccc1 (stereo not drawn) : CoaBC: 6.234%; MtTrpRS: 4.454%; Pks13 thioesterase: 10.31%
* Cc1cc(CN(CCO)c2ccccc2)on1 : CoaBC: 1.38%; MtTrpRS: 3.076%; Pks13 thioesterase: -17.83%
* COc1nn(C)c2c1CCCN(C(=O)c1cccc3cccnc13)C2 : CoaBC: 0.2469%; Pks13 thioesterase: -8.259%
* Cc1cc(OC(F)F)c(C(=O)N2CCN(C3CC3)CC2)s1 : CoaBC: 8.962%; MtTrpRS: -3.233%; Pks13 thioesterase: -34.81%
* O=C(NCC1CCCO1)c1coc(Cn2cnc3ccccc32)n1 (stereo not drawn) : CoaBC: 0.3659%; MtTrpRS: 0%; Pks13 thioesterase: -12.29%
* COCC(=O)N1CCCCC1c1nc(C)c2c(n1)N(CC1CC1)C(=O)C2 (stereo not drawn) : CoaBC: -1.214%; MtTrpRS: -0.4933%; Pks13 thioesterase: 6.68%
* CN(Cc1cccs1)C1CCC[C@@H]2CN(C(N)=O)C[C@H]12 (stereo partly drawn) : MtTrpRS: -2.913%; Pks13 thioesterase: -8.984%
* CN(C)S(=O)(=O)N1CCC(c2n[nH]cc2-c2ccnc(N)c2)C1 (stereo not drawn) : CoaBC: 0.7884%; MtTrpRS: -3.455%; Pks13 thioesterase: -8.018%
* Cc1nc(C(C)NC(=O)COc2ccc(F)cc2)n[nH]1 (stereo not drawn) : CoaBC: 3.204%; MtTrpRS: -1.474%; Pks13 thioesterase: -21.02%
* Cc1ccc(C(=O)NCCS(=O)(=O)N2CCSCC2)n1C : CoaBC: 1.033%; MtTrpRS: 1.434%; Pks13 thioesterase: -6.629%
* COc1ccc(C(=O)N(C)Cc2nnc3ccccn23)c(OC)c1 : CoaBC: 6.923%; MtTrpRS: 0.7037%; Pks13 thioesterase: -17.65%
* Cc1nc2[nH]cc(C(=O)N3CCCCC3c3ccc(F)cc3)c(=O)n2n1 (stereo not drawn) : CoaBC: -0.2571%; MtTrpRS: -0.4042%; Pks13 thioesterase: 4.409%
* Cc1nc(-c2ccco2)ccc1C(=O)N1CCn2c(C)nnc2C1 : CoaBC: 3.15%; MtTrpRS: -4.814%; Pks13 thioesterase: 6.203%
* COc1ccccc1OCc1cc(C(=O)N2CCN(C(C)=O)CC2)n[nH]1 : CoaBC: -2.17%; MtTrpRS: -3.232%; Pks13 thioesterase: -9.665%
* CN(CC(=O)N1CCCC1)C(=O)c1cccn1CCc1ccccc1 : CoaBC: 2.723%; MtTrpRS: -3.804%; Pks13 thioesterase: -7.404%
* CN(C(=O)c1ccccc1NCC(=O)O)C(C1CC1)C1CC1 : CoaBC: 2.469%; MtTrpRS: -3.132%; Pks13 thioesterase: -22.35%
* CCC[C@H]1CN(C(=O)Cn2ccccc2=O)C[C@@H]1NS(C)(=O)=O : CoaBC: -9.821%; MtTrpRS: -0.3096%; Pks13 thioesterase: 3.588%
* O=C(NC1CCCC1)c1nc2c(o1)CN(C(=O)CO)C2 : CoaBC: -85.04%; MtTrpRS: -4.392%; Pks13 thioesterase: -28.93%
* CCOc1cccc(CNC(=O)c2cnn(CC)c2C(F)(F)F)c1 : CoaBC: 1.772%; MtTrpRS: 4.431%; Pks13 thioesterase: 10.22%
* COc1ccc(-c2cnc(CN3CCn4c(C)nnc4C3)o2)cc1 : CoaBC: 6.649%; MtTrpRS: 3.145%; Pks13 thioesterase: -15.85%
* CCCc1nnc(N2CCN(C3CCCC3)CC2)o1 : CoaBC: 3.65%; MtTrpRS: 6.173%; Pks13 thioesterase: -10.7%
* COCc1nn(CC2CC2)c2c1CN(C(=O)c1ccno1)CC2 : CoaBC: 10.78%; MtTrpRS: -6.413%; Pks13 thioesterase: -38.32%
* Fc1cnc(N2CCOC3(CCN(Cc4cccs4)CC3)C2)nc1 : CoaBC: 1.333%; Pks13 thioesterase: -8.777%

3 of the entries, repeated:

- O=C(NCC1CCCO1)c1coc(Cn2cnc3ccccc32)n1 (stereo not drawn) | CoaBC: 0.3659%; MtTrpRS: 0%; Pks13 thioesterase: -12.29%
- CCCc1nnc(N2CCN(C3CCCC3)CC2)o1 | CoaBC: 3.65%; MtTrpRS: 6.173%; Pks13 thioesterase: -10.7%
- Cc1nc2[nH]cc(C(=O)N3CCCCC3c3ccc(F)cc3)c(=O)n2n1 (stereo not drawn) | CoaBC: -0.2571%; MtTrpRS: -0.4042%; Pks13 thioesterase: 4.409%

Source: ChEMBL document CHEMBL3988442, “University of Dundee, Small-Polar-MMV Screening Library” (2021).